# Values of other authors as cited in patent US5846980A, “N-(benzhydryloxyalkyl)-4-(carboxy/carbamoyl methyl)-piperidine derivatives as antidepressants” (Cooperation Pharmaceutique Francaise, priority 1994, dated 1998).
# Tested on: noradrenaline re-uptake
compound,measurement,value
"CN1Cc2c(N)cccc2C(c2ccccc2)C1 (stereo not shown) [1,2,3,4-tetrahydro-2-methyl-4-phenyl-8-isoquinolinamine]",inhibition of noradrenaline re-uptake,inhibit dopamine and noradrenaline re-uptake
